The other results are listed elsewhere or left out. These are further read-outs of the screen, such as a control signal, another cell line or another target. No call is given for them. Most of these compounds were active or inconclusive in the main read-out, so they are no random draw. Potencies come from curve fits of mixed quality, noted in brackets.
Test: qHTS Assay to Find Inhibitors of Chronic Active B-Cell Receptor Signaling
Details: ABC-DLBCL IkBa-CBG/CBR reporter, luminescence ratio (green luciferase fused to IkBa over red control in TMD8 lymphoma cells), 4 h
Method in brief: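 TMD8 human ABC-DLBCL cells with doxycycline-inducible IκBα–green luciferase fusion and unfused red luciferase, in 0.5% FBS medium; compounds up to 46 uM, 4 h at 37C. Green/red luminescence ratio, filter-overlap corrected, fitted to concentration-response curves.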

[1] = measured here: CBR red luminescence, cell number
[2] = measured here: IkBa-CBG green luminescence

Row | SMILES | AC50 [1] | AC50 [2]
1 | NS(=O)(=O)c1cccc(NC(=O)CSc2nnc(-c3ccccc3)o2)c1 | 7.31 µM [falling, partial curve] | –
2 | CNCC(=O)Nc1ccc(Cl)c(C(F)(F)F)c1 | 1.78 µM [rising, partial curve, poor fit] | –
3 | CCOC(=O)[C@H]1[C@H]2COc3ccc(C)cc3[C@@H]2N2C(=O)c3ccc(F)cc3NC(=O)[C@@]12C | 5.8 µM [falling, single point] | –
4 | CC1=C(C(=O)OC2CCCCC2)C(c2cccc([N+](=O)[O-])c2)NC(=O)N1 (stereo not drawn) | 35.5 µM [falling, single point] | –
5 | O=C1c2cccc(OCC(=O)N3N=C(c4cccs4)CC3c3ccc(F)cc3)c2CCN1Cc1cccnc1 (stereo not drawn) | 16.4 µM [falling, partial curve, poor fit] | –
6 | O=C(N/N=C/c1ccccc1Cl)c1[nH]c2ccc(Br)cc2c1-c1ccccc1 | 1.3 µM [rising, full curve] | 1.64 µM [falling, full curve]
7 | O=C(Nc1nc2ccc([N+](=O)[O-])cc2s1)c1c(F)cccc1F | 5.62 µM [falling, partial curve, poor fit] | –
8 | O=C(Nc1ccc(Cl)cc1F)C1CCN(S(=O)(=O)c2cccc3nonc23)CC1 | 6.31 µM [falling, single point] | –
9 | Cn1c(=O)c2nnn(/N=C(\c3ccccc3)C3CC3)c2n(C)c1=O | 22.4 µM [falling, single point] | –
10 | N/C(=N\OC(=O)c1ccc2c(c1)OCO2)c1cccc(Br)c1 | 5.62 µM [rising, single point] | –
11 | N#Cc1cccc(NC(=O)Nc2cccs2)c1 | 5.01 µM [rising, partial curve, poor fit] | –
12 | O=C(COc1ccc(Cl)cc1)N1CCCC1 | 1.16 µM [falling, full curve] | –
13 | O=C(Cc1cccc(NC(=O)C2CCCN(C(=O)CCc3ccccc3)C2)c1)Nc1cccc(C(=O)N2CCCC2)c1 (stereo not drawn) | 20.6 µM [falling, single point] | –
14 | CC(C)(C)c1cc[n+](C2=C([O-])c3ccccc3C(=O)/C2=N\S(=O)(=O)c2cccs2)cc1 | 7.94 µM [falling, partial curve, poor fit] | 8.91 µM [rising, partial curve, poor fit]
15 | O=[N+]([O-])c1ccc(-c2cnc(SCc3ccccc3Cl)[nH]2)cc1 | 10 µM [falling, partial curve] | –
16 | O=C(NCc1ccco1)c1cc2cc(Br)ccc2o1 | 11.2 µM [falling, partial curve, poor fit] | –
17 | O=C(Cn1cnc2c(nnn2Cc2ccccc2)c1=O)N1CCN(c2ccccc2)CC1 | 9.2 µM [rising, single point] | –
18 | COc1ccccc1C(=O)NNC(=O)c1ccc(NS(=O)(=O)c2cccs2)cc1 | 7.94 µM [falling, partial curve] | –
19 | Cc1sc(NC(=O)CCCC(=O)O)c(C(N)=O)c1-c1ccccc1 | 3.98 µM [falling, full curve, poor fit] | –
20 | O=C(Cn1nnc(-c2ccccc2F)n1)OCC(=O)c1ccccc1 | 4.47 µM [falling, full curve] | –
21 | Nc1c(C(=O)OCC2CCCO2)c2nc3ccccc3nc2n1C1CCCC1 (stereo not drawn) | 2.91 µM [rising, single point] | –
22 | Cc1ccc(CNC(=O)c2c(Nc3ccccc3C)sc(C(=O)c3ccc(F)cc3)c2N)cc1 | – | 25.1 µM [falling, single point]

Row | SMILES | AC50 [1] | AC50 [2]
23 | O=C(Nc1ccc2snnc2c1)Nc1cccc2ccccc12 | 0.731 µM [falling, full curve, poor fit] | –
24 | C/C(CC(=O)Nc1ccc(N(C)C)cc1)=N\NC(=O)c1ccncc1 | 35.5 µM [falling, single point] | –
25 | CCOC(=O)c1ccc(N2C(=O)CC(NNC(=O)c3ccc(Br)s3)C2=O)cc1 (stereo not drawn) | 14.1 µM [falling, single point] | –
26 | CSc1nc(C2CC2)cc(-c2cccs2)c1C#N | 7.08 µM [rising, partial curve] | –
27 | CCOC(=O)C1=C(c2ccccc2)Nc2ncnn2C1c1ccc(O)cc1 (stereo not drawn) | 6.31 µM [rising, single point] | –
28 | COc1cc(C(=O)NCC2CCCO2)ccc1OCc1ccc(Cl)cc1 (stereo not drawn) | 3.66 µM [rising, full curve, poor fit] | –
29 | CC(=O)c1ccc(NS(=O)(=O)Cc2ccc(Cl)cc2)cc1 | 0.58 µM [rising, full curve, poor fit] | –
30 | Oc1ccc(-c2csc(Nc3ccccn3)n2)cc1 | 11.2 µM [falling, partial curve] | –
31 | Cn1c(NN)nc2ccccc2c1=O | 2 µM [falling, single point] | –
32 | Nc1cccc2c1C(=O)N(C(=O)/C=C/c1ccc(F)cc1)C2=O | 10 µM [falling, partial curve] | –
33 | CC(C)NC(=O)N(C)C[C@@H]1Oc2c(NC(=O)C3CCOCC3)cccc2C(=O)N([C@@H](C)CO)C[C@H]1C | 32.6 µM [rising, partial curve, poor fit] | –
34 | COCCNC(=O)CSc1c2c(nc3ccc(Cl)cc13)CCCC2 | 3.16 µM [falling, full curve] | –
35 | CCOC(CCc1c(C)nc(NC(C)=O)[nH]c1=O)OCC | 35.5 µM [rising, single point] | –
36 | O=c1[nH]nc(Sc2ncnc3sccc23)n1CCc1ccccc1 | 7.94 µM [falling, partial curve, poor fit] | –
37 | COc1ccc(/C=C/C(=O)Nc2ccccc2)cc1OC | 1.41 µM [falling, full curve] | –
38 | COc1ccc(N2CCN(c3ccc([N+](=O)[O-])nc3)CC2)cc1 | 11.2 µM [rising, single point] | –
39 | COc1cccc(C(=O)CSc2nnc(COc3cccc4cccnc34)o2)c1 | 0.731 µM [falling, full curve, poor fit] | –
40 | CCCc1nc(SCC(=O)c2ccc(OC)cc2)c2ccccc2n1 | 14.1 µM [falling, single point] | –
41 | Fc1ccc(-c2csc(Nc3ccccn3)n2)c(F)c1 | 14.1 µM [falling, partial curve] | –
42 | COCCCNC(=O)C1c2ccccc2Oc2ccccc21 | 0.501 µM [rising, full curve, poor fit] | –
43 | Cc1ccc(N2CCC(N3CCN(C4CCCCC4)C(CCO)C3)CC2)cc1 (stereo not drawn) | 6.31 µM [rising, single point] | –
44 | COc1ccc(-c2cc(C(=O)N3CCCc4ccccc43)no2)cc1OC | 12.6 µM [falling, partial curve] | –

Row | SMILES | AC50 [1] | AC50 [2]
45 | c1ccc(-c2ccccc2OCCOCCN2CCCCC2)cc1 | 32.6 µM [falling, single point] | –
46 | CC(=O)C1=C(O)C(=O)N(Cc2ccccc2)C1c1ccc(Br)cc1 (stereo not drawn) | 12.6 µM [rising, single point] | –
47 | Cc1cccc(NC(=O)c2cc(-c3c(C)cc(C)cc3O)n[nH]2)c1 | 11.2 µM [falling, partial curve, poor fit] | –
48 | Cc1ccc(/C=N/NC(=O)c2cccc(NC(=O)c3ccccc3Cl)c2)o1 | 11.2 µM [falling, partial curve] | –
49 | COc1cccc(NC(=O)Nc2cccc(C(=O)O)c2)c1 | 1.78 µM [falling, full curve] | –
50 | COc1ccc(NC(=O)c2cc(S(=O)(=O)NCCC3=CCCCC3)ccc2F)cc1 | 15.8 µM [falling, single point] | –
51 | O=C(COC(=O)Cc1c(Cl)cccc1Cl)NCC1CCCO1 (stereo not drawn) | 2.82 µM [rising, full curve, poor fit] | –
52 | FC(F)(F)c1ccc(-c2noc(-c3ccccc3Br)n2)cc1 | 4.47 µM [rising, partial curve, poor fit] | –
53 | CCCc1nc(SCC(=O)Nc2nccs2)c2ccccc2n1 | 1.58 µM [falling, full curve, poor fit] | –
54 | COc1cc(/C=C/C(=O)OCC(=O)N2CCCC2)ccc1OCC#N | 23.1 µM [rising, single point] | –
55 | CN(C)/C=N/C(=S)Nc1ccccc1Cl | 0.562 µM [falling, full curve] | –
56 | CCC(=O)c1cc2c(cc1NC(=O)c1ccc(C)cc1)OCCO2 | 2.59 µM [rising, full curve, poor fit] | –
57 | Cc1nc(C)c(CCNC(=O)c2cccc(Cl)c2)s1 | 16.4 µM [falling, single point] | –
58 | O=C(CSc1nnc(-c2cccnc2)o1)Nc1ccc(Br)cc1 | 3.55 µM [rising, full curve] | –
59 | O=C(CSc1ccc(-c2ccc(F)cc2)nn1)Nc1ccc2c(c1)OCCO2 | 25.9 µM [rising, single point] | –
60 | CC(C)CC(=O)N/C(N)=N/c1nc2ccccc2o1 | 3.16 µM [falling, full curve] | –
61 | C/C(CC(=O)Nc1ccc(Cl)cc1C(F)(F)F)=N\NC(=O)c1ccccn1 | 11.2 µM [falling, partial curve] | –
62 | CC(=O)Nc1ccc(S(=O)(=O)NCC(=O)OCC(=O)NC(=O)c2cccn2C)cc1 | 2.82 µM [rising, single point] | –
63 | COc1cc(NC(=S)NN2CCN(C)CC2)cc(OC)c1 | 32.6 µM [rising, partial curve, poor fit] | –
64 | O=C(NCCN1CCN(C(=O)c2ccc([N+](=O)[O-])cc2)CC1)C(=O)Nc1ccc(F)cc1 | 1.41 µM [falling, full curve, poor fit] | –
65 | COc1ccc(NS(=O)(=O)c2cccc(Cl)c2Cl)cc1S(=O)(=O)N1CCCCC1 | 1.84 µM [falling, full curve, poor fit] | 1.3 µM [rising, partial curve, poor fit]
